Measured values reported in patent US7396944B2, “Thiophene derivatives, their manufacture and use as pharmaceutical agents” (Hoffmann-La Roche Inc., priority 2004, dated 2008).
Some entries share one result that the patent states for a list of compounds. For at least one compound, name, drawing or mass did not settle the structure.

These molecules were tested on HT-29 cells (human colon carcinoma cell line) (assay: MTT assay on HT-29 human colon carcinoma cell line). Conditions: MTT assay after 5 days, read-out: IC90 HT29.
Type: cell-based
Description: To show the activity of the compounds according to this invention, their effects on a human colon carcinoma cell line was evaluated using a standard MTT-assay. MTT (3-(4,5-dimethylthiazol-2-yl)-2,5-diphenyl tetrazolium bromide) is widely used for the quantitative determination of cytotoxic effects or in vitro chemosensitivity of tumor cells. The assay is based on the cleavage of the yellow tetrazolium salt (MTT) to purple formazan crystals by metabolic active cells. For details, see Rubinstein, L. V., et al., J. Natl. Cancer Inst. 82 (1990) 1113-1118.
We proceeded as follows: HT-29 cells (human colon carcinoma cell line, ATCC-No. HTB-38) were cultivated in RPMI 1640 medium with GlutaMAX™ I (Invitrogen, Cat-No. 61870-010), 2.5% fetal calf serum (FCS, Sigma Cat-No. F4135 (FBS)), 2 mM glutamine, 100 units/ml penicillin, 100 μg/ml streptomycin (=Pen/Strep from Invitrogen Cat. No. 15140). For the assay the cells were seeded in 384 well plates, 900 cells per well, in the same medium. At the next day, the compounds (dissolved 10 mM in DMSO) were added in various concentrations ranging from 30 μM to 1.5 nM. After 5 days, the MTT assay was done mainly according to the instructions of the manufacturer (Cell proliferation kit I, MTT, from Roche Molecular Biochemicals). In brief: MTT labeling reagent was added to a final concentration of 0.5 mg/ml, added and incubated for 4 hrs at 37° C., 5% CO2. During this incubation time purple formazan crystals are formed. After addition of the solubilization solution (20% Sodium Dodecyl Sulfate (SDS) in 0.02 M HCl) the plates were incubated overnight at 37° C., 5% CO2. After careful mixing, the plates were measured in Victor 2 (scanning multiwell spectrophotometer, Wallac) at 550 nm.
A decrease in number of living cells results in a decrease in the total metabolic activity in the sample. The decrease directly correlates to the amount of purple colour resulting from the solubilization of the purple formazan crystals. Determination of IC90 was done using XL-fit (XLfit software (ID Business Solution Ltd., Guilford, Surrey, UK)).
`CC(NC(=O)c1ccc(C(=O)NO)s1)c1ccc(-c2cccc(Cl)c2)s1` (stereo not drawn) [Example 3-11, Thiophene-2,5-dicarboxylic acid 2-({1-[5-(3-chloro-phenyl)-thiophen-2-yl]-ethyl}-amide) 5-hydroxyamide] was tested, and the IC90 was under 100 nM. `CC(NC(=O)c1ccc(C(=O)NO)s1)c1cccc(-c2cccs2)c1` (stereo not drawn) [Example 2-1, Thiophene-2,5-dicarboxylic acid 2-hydroxyamide 5-{[1-(3-thiophen-2-yl-phenyl)-ethyl]-amide}] showed an IC90 of 100 to 500 nM. With `C[C@@H](NC(=O)c1ccc(C(=O)NO)s1)c1ccc(-c2cccs2)cc1` [Example 1-1, (R)-Thiophene-2,5-dicarboxylic acid 2-hydroxyamide 5-{[1-(4-thiophen-2-yl-phenyl)-ethyl]-amide}] the IC90 was under 100 nM.
